For this assay, the system named is P1534 leukemia ip, CD2F1 mice, survival T/C. The experiment in a line: NCI In Vivo Anticancer Drug Screen. Data for tumor model P1534 Leukemia (intraperitoneal) in CD2F1 (CDF1) mice. The note with it: higher T/C = longer survival. How it is done:
The antitumor activity of compounds was measured in mice bearing transplantable tumors. Survival or tumor size were measured and the results are expressed as the measurement made in the treated group (T) divided by the measurement made in the vehicle treated control group (C). The tumor model used in this assay is P1534 Leukemia (intraperitoneal) in CD2F1 (CDF1) mice

Where [1] appears, read: T/C endpoint: mean survival time, dose: 400.0 mg/kg/injection, schedule: Q01DX010 (ip), vehicle: water.
Where [2] appears, read: T/C endpoint: mean survival time, dose: 25.0 mg/kg/injection, schedule: Q01DX010 (ip), vehicle: saline.
[3] abbreviates: T/C endpoint: mean survival time, dose: 50.0 mg/kg/injection, schedule: Q01DX010 (ip), vehicle: saline.
[4] abbreviates: T/C endpoint: mean survival time, dose: 100.0 mg/kg/injection, schedule: Q01DX010 (ip), vehicle: saline.
[5] abbreviates: T/C endpoint: mean survival time, dose: 125.0 mg/kg/injection, schedule: Q01DX010 (ip), vehicle: saline.
Setting [6] is: T/C endpoint: mean survival time, dose: 200.0 mg/kg/injection, schedule: Q01DX010 (ip), vehicle: saline.
Setting [7] is: T/C endpoint: mean survival time, dose: 80.0 mg/kg/injection, schedule: Q01DX010 (ip), vehicle: saline.
[8] abbreviates: T/C endpoint: mean survival time, dose: 1.25 mg/kg/injection, schedule: Q01DX010 (ip), vehicle: saline.
[9] abbreviates: T/C endpoint: mean survival time, dose: 2.5 mg/kg/injection, schedule: Q01DX010 (ip), vehicle: saline.
[10] abbreviates: T/C endpoint: mean survival time, dose: 500.0 mg/kg/injection, schedule: Q01DX010 (ip), vehicle: saline.
Where [11] appears, read: T/C endpoint: mean survival time, dose: 5.0 mg/kg/injection, schedule: Q01DX010 (ip), vehicle: saline.

SMILES strings stand for the structures. The list does not hold the whole screen: it gathers tests that were run many times, whatever their T/C, doses with no T/C, and many T/C values between a quarter and a half above the control. Other doses and runs of a compound stand elsewhere. T/C gives the treated animals as a percentage of the vehicle group. Some doses have a count of surviving animals in place of a T/C: the source files T/C as zero there, which appears to mark a toxic dose or a test without result, not a measured value. Some survivor counts are full or nearly so, which does not show that the dose was tolerated: the source hardly ever lists a survival T/C far under the control, and the zero likely stands for such cases as well. Survivors were counted at the toxicity check, usually on the fifth day, unless a day is given; later deaths do not show. Schedules are NCI's codes, taken here to give the interval after Q, in days (D) or hours (H), and the number of doses after X. Some schedules carry Z or #; the key to these is not given. Where survival is the endpoint, the PubChem record calls one and a half times the control and up active, and a quarter to a half above the control has no call in these data; cut-offs in other NCI protocols can differ. Some T/C values carry the count of animals alive at the toxicity check (mostly the fifth day); without a count, all were alive then.

Turning to `O=C(NO)c1cccnc1`, the T/C under setting [1] was 129 % of control. Also, the survivor count (T/C endpoint: mean survival time, dose: 900.0 mg/kg/injection, schedule: Q01DX010 (ip), vehicle: water) is listed as 1 of 6.
Take `NCCCCCCNCCCCCCN`: the survivor count is reported as 6 of 6 under setting [2], 0 of 6 under setting [3] and 0 of 6 under setting [4].
Turning to `O=C(O)CCCc1ccc(N(CCCl)CCCl)cc1`, where the note is “T/C endpoint: mean survival time, dose: 12.5 mg/kg/injection, schedule: Q01DX010 (ip), vehicle: other”, the T/C is 125 % of control. Under “T/C endpoint: mean survival time, dose: 50.0 mg/kg/injection, schedule: Q01DX010 (ip), vehicle: other”, the survivor count was 0 of 6.
On to `CC(=O)Nc1c(Cl)cc2c(c1Cl)Cc1cc([N+](=O)[O-])ccc1-2`, for which the survivor count reads like this: under setting [5], 4 of 6; (T/C endpoint: mean survival time, dose: 250.0 mg/kg/injection, schedule: Q01DX010 (ip), vehicle: saline) 6 of 6.
Regarding `COc1cc(-c2ccc(Nc3ccccc3C(=O)O)c(OC)c2)ccc1Nc1ccccc1C(=O)O`, the survivor count is on record as 6 of 6 under setting [3], 6 of 6 under setting [4] and 3 of 6 under setting [6]. Also, the T/C under setting [4] is 139 % of control.
With `CN1C2CCC1CC(OC(=O)C(CO)c1ccccc1)C2` (stereo not given), the survivor count by setting is: under setting [4], 5 of 6; under setting [6], 0 of 6.
Turning to `COc1cc2c3c(c4ccc(OC)c(OC)c4c2cc1OC)CN1CCC[C@@H]1C3`, the T/C (T/C endpoint: mean survival time, dose: 12.5 mg/kg/injection, schedule: Q01DX010 (ip), vehicle: water) was 132 % of control [5 of 6 alive].
In the case of `Cn1c(=O)c2c(ncn2C)n(C)c1=O`, the survivor count under setting [6] is listed as 3 of 6.
Regarding `CC1CCOS(=O)O1` (stereo not given), under setting [7], the survivor count is recorded as 6 of 6.
For the compound `CN(C)c1ccc(Nc2c3ccccc3nc3ccccc23)cc1`, the T/C (T/C endpoint: mean survival time, dose: 54.0 mg/kg/injection, schedule: Q01DX010 (ip), vehicle: saline) is 125 % of control. Also, the survivor count (T/C endpoint: mean survival time, dose: 120.0 mg/kg/injection, schedule: Q01DX010 (ip), vehicle: saline) is reported as 6 of 6.
Take `CC(=O)O[C@]1(C(C)=O)CC[C@H]2[C@@H]3C[C@H](C)C4=CC(=O)C=C[C@]4(C)[C@@]3(F)[C@@H](O)C[C@@]21C`: the survivor count reads like this: (T/C endpoint: mean survival time, dose: 50.0 mg/kg/injection, schedule: Q01DX010 (sc), vehicle: steroid suspending solution) 6 of 6; (T/C endpoint: mean survival time, dose: 100.0 mg/kg/injection, schedule: Q01DX010 (sc), vehicle: steroid suspending solution) 6 of 6.
`CO[C@@]12[C@H](COC(N)=O)C3=C(C(=O)C(C)=C(N)C3=O)N1C[C@@H]1N[C@@H]12`: the T/C (T/C endpoint: mean survival time, dose: 0.5 mg/kg/injection, schedule: Q01DX010 (ip), vehicle: saline) is 128 % of control and the T/C (T/C endpoint: mean survival time, dose: 1.0 mg/kg/injection, schedule: Q01DX010 (ip), vehicle: saline) is 139 % of control. Further, the survivor count is 6 of 6 (T/C endpoint: mean survival time, dose: 2.0 mg/kg/injection, schedule: Q01DX010 (ip), vehicle: saline) and 6 of 6 (T/C endpoint: mean survival time, dose: 4.0 mg/kg/injection, schedule: Q01DX010 (ip), vehicle: saline).
For the compound `CO[C@@H]1[C@@H](OC2OC(C)C(OC3CC(C)(O)C(OC(=O)CC(C)C)C(C)O3)C(N(C)C)C2O)[C@@H](CC=O)C[C@@H](C)C(=O)/C=C/C2O[C@H]2C[C@@H](C)OC(=O)C[C@H]1OC(C)=O` (stereo not given in full), the T/C by setting is: (T/C endpoint: mean survival time, dose: 150.0 mg/kg/injection, schedule: Q#A X020 (ip), vehicle: water) 130 % of control [4 of 6 alive]; (T/C endpoint: mean survival time, dose: 300.0 mg/kg/injection, schedule: Q01DX010 (ip), vehicle: water) 143 % of control [5 of 6 alive]; (T/C endpoint: mean survival time, dose: 350.0 mg/kg/injection, schedule: Q01DX010 (ip), vehicle: water) 125 % of control. For the same compound, the survivor count under setting [1] was 1 of 6; the survivor count (T/C endpoint: mean survival time, dose: 600.0 mg/kg/injection, schedule: Q01DX010 (ip), vehicle: water) was 0 of 6; the survivor count (T/C endpoint: mean survival time, dose: 1500.0 mg/kg/injection, schedule: Q01DX010 (oral), vehicle: water) is 1 of 6.
For the compound `CNCC(O)(C(=O)O)C(=O)O`, the survivor count is given as 6 of 6 under setting [6] and 2 of 6 (T/C endpoint: mean survival time, dose: 400.0 mg/kg/injection, schedule: Q01DX010 (ip), vehicle: saline).
For `N=C(N)SCc1c2ccccc2c(CSC(=N)N)c2ccccc12`, the T/C reads like this: under setting [8], 139 % of control; under setting [9], 132 % of control.
`Cc1ccccn1`: under setting [10], the survivor count was 3 of 6.
For the compound `CC[n+]1c(-c2ccccc2)c2cc(N)ccc2c2ccc(N)cc21`, the T/C under setting [11] was 139 % of control [5 of 6 alive].
Take `CC[C@]12CN3CCc4c([nH]c5ccccc45)[C@@](C(=O)OC)(c4cc5c(cc4OC)N(C)[C@H]4[C@@](O)(C(=O)OC)[C@H](OC(C)=O)[C@]6(CC)C=CCN7CC[C@]54[C@@H]76)CC(C3)[C@H]1O2` (stereo not given in full): the T/C is 146 % of control (T/C endpoint: mean survival time, dose: 0.75 mg/kg/injection, schedule: Q01DX010 (ip), vehicle: saline) and 143 % of control (T/C endpoint: mean survival time, dose: 750.0 micrograms/kg/injection, schedule: Q01DX010 (ip), vehicle: saline). Moreover, the survivor count (T/C endpoint: mean survival time, dose: 6.0 mg/kg/injection, schedule: Q01DX010 (ip), vehicle: saline) is on record as 6 of 6.
With `NCCc1ccccc1`, the survivor count under setting [5] was 4 of 6.
Turning to `CC1CCC(NC(=O)N(CCCl)N=O)CC1` (stereo not given), under “T/C endpoint: median survival time, dose: 2.0 mg/kg/injection, schedule: Q01DX005 (ip), vehicle: other”, the T/C was 132 % of control.
Take `C(CC1CCNCC1)CC1CCNCC1`: the survivor count runs as follows: (T/C endpoint: mean survival time, dose: 6.25 mg/kg/injection, schedule: Q01DX010 (ip), vehicle: saline) 6 of 6; (T/C endpoint: mean survival time, dose: 12.5 mg/kg/injection, schedule: Q01DX010 (ip), vehicle: saline) 6 of 6; under setting [2], 6 of 6; under setting [3], 0 of 6.
Consider `O=C(NCCCC(NC(=O)OCc1ccccc1)C(=O)NCCCCCCNCCCCCCNC(=O)C(CCCNC(=O)OCc1ccccc1)NC(=O)OCc1ccccc1)OCc1ccccc1` (stereo not given), for which the survivor count under setting [3] is listed as 6 of 6.
As to `CCC(CCC(C)C1CCC2C3CC=C4CC(O)CCC4(C)C3CCC12C)C(C)C` (stereo not given) (tested in a mixture with another compound), the survivor count reads like this: (T/C endpoint: mean survival time, dose: 12.5 mg/kg/injection, schedule: Q#A X020 (ip), vehicle: other) 6 of 6; (T/C endpoint: mean survival time, dose: 50.0 mg/kg/injection, schedule: Q#A X020 (ip), vehicle: other) 5 of 6; (T/C endpoint: mean survival time, dose: 100.0 mg/kg/injection, schedule: Q01DX010 (ip), vehicle: water) 5 of 6; (T/C endpoint: mean survival time, dose: 100.0 mg/kg/injection, schedule: Q#A X020 (ip), vehicle: other) 0 of 6.
Regarding `CN[C@H]1CCc2cc(OC)c(OC)c(OC)c2-c2ccc(OC)c(=O)cc21`, the T/C was 128 % of control under setting [8] and 128 % of control under setting [9]. For the same compound, the survivor count by setting is: under setting [11], 6 of 6; (T/C endpoint: mean survival time, dose: 10.0 mg/kg/injection, schedule: Q01DX010 (ip), vehicle: saline) 6 of 6.
Consider `COc1ccc2cc3[n+](cc2c1O)CCc1cc2c(cc1-3)OCO2`, for which the T/C under setting [4] was 142 % of control.
As for `C/C=C1\CN2C3C[C@H]1C(C(=O)OC)[C@H]2Cc1c3[nH]c2ccccc12` (stereo not given in full), the survivor count (T/C endpoint: mean survival time, dose: 60.0 mg/kg/injection, schedule: Q01DX010 (ip), vehicle: saline) was 4 of 6.
As for `O=C(NCCCC(NC(=O)OCc1ccccc1)C(=O)NCCCNCCCCNCCCNC(=O)C(CCCNC(=O)OCc1ccccc1)NC(=O)OCc1ccccc1)OCc1ccccc1` (stereo not given), the survivor count is, setting by setting: under setting [11], 6 of 6; (T/C endpoint: mean survival time, dose: 20.0 mg/kg/injection, schedule: Q01DX010 (ip), vehicle: saline) 3 of 6.
As for `N#Cc1cn(C2OC(CO)C(O)C2O)c2ncnc(N)c12` (stereo not given), the survivor count is, setting by setting: (T/C endpoint: mean survival time, dose: 62.5 micrograms/kg/injection, schedule: Q01DX010 (ip), vehicle: saline) 6 of 6; (T/C endpoint: mean survival time, dose: 125.0 micrograms/kg/injection, schedule: Q01DX010 (ip), vehicle: saline) 6 of 6.
`CN1CCN(CCCN2c3ccccc3Sc3ccc(C(F)(F)F)cc32)CC1`: the survivor count is listed as 6 of 6 under setting [7] and 0 of 6 (T/C endpoint: mean survival time, dose: 160.0 mg/kg/injection, schedule: Q01DX010 (ip), vehicle: saline).
In the case of `CC(=O)Nc1ccc(/C=N/Nc2ccc([N+](=O)[O-])cn2)cc1`, the survivor count under setting [10] is listed as 6 of 6.

The values are drawn from PubChem BioAssay AID316 (DTP/NCI, 2004).
